According to patent publication US7495021B2, “Benzothiazole- and benzooxazole-4,7-dione, derivatives and their use as cdc25 phosphate inhibitors” (Societe de Conseils de Recherches et d'Applications …, priority 2001, dated 2009):
Some results were stated once for a whole list of compounds, not compound by compound.

Columns and labels:
[1] = tested on: DU145 (human prostate cancer cells); experiment: Antiproliferative activity, WST1 colorimetric test, DU145; assay type: cell-based; conditions: 96 hours treatment, up to 10 μM; read-out: Cl50 on the cell proliferation of the lines DU-145
Experimental: (§1) iii) Characterization of the Antiproliferative Activity:
(§2) By way of example, the effect of a treatment on two human cell lines Mia-Paca2 and DU145 by the compounds of the examples described previously will be studied. The cell lines DU145 (human prostate cancer cells) and Mia-PaCa2 (human pancreas cancer cells) were acquired from the American Tissue Culture Collection (Rockville, Md., USA). The cells placed in 80 μl of Dulbecco's Modified Eagle's medium (Gibco-Brl, Cergy-Pontoise, France) completed with 10% foetal calf serum inactivated by heating (Gibco-Brl, Cergy-Pontoise, France), 50,000 units/l of penicillin and 50 mg/l of streptomycin (Gibco-Brl, 10378-057, Cergy-Pontoise, France), and 2 mM of glutamine (Gibco-Brl, Cergy-Pontoise, France) were seeded on a 96-well plate on day 0. The cells were treated on day 1 for 96 hours with increasing concentrations of each of the compounds to be tested up to 10 μM. At the end of this period, quantification of cell proliferation is evaluated by a colorimetric test based on the cleavage of the tetrazolium salt WST1 by the mitochondrial dehydrogenases in viable cells leading to the formation of formazan (Boehringer Mannheim, Meylan, France). These tests are carried out in duplicate with 8 determinations per concentration tested. For each compound to be tested, the values included in the linear part of the sigmoid were retained for a linear regression analysis and used to estimate the inhibitory concentration IC50. The products are solubilized in dimethylsulphoxide (DMSO) at 10^−2 M and used in culture with 0.1% DMSO final.

MBP-Cdc25C protein = biological target: T1, MBP-Cdc25C protein (Homo sapiens, UniProt P30307); experiment: Measurement of the phosphatase activity of the purified Cdc25C recombinant enzyme (OMFP dephosphorylation, fluorescence); assay type: biochemical; conditions: OMFP 500 μM, 4 hours at 30° C.; read-out: CI50 on the phosphatase activity of the purified recombinant enzyme Cdc25-C
T1 construct: made in house
T1 sequence (P30307 1-473): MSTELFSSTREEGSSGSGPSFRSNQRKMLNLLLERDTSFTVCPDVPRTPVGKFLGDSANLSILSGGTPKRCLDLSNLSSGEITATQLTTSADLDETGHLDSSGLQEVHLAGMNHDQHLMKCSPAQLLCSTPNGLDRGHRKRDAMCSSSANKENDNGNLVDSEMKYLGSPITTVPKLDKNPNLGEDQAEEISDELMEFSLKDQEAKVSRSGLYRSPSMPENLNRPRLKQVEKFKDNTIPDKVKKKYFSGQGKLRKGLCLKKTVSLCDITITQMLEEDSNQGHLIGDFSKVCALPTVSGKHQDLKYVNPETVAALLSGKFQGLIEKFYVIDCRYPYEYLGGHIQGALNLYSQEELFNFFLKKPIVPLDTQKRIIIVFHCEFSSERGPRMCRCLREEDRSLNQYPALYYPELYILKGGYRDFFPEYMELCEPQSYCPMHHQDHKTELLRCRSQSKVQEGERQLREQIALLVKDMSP

[2] = tested on: Mia-PaCa2 (human pancreas cancer cells); experiment: Antiproliferative activity, WST1 colorimetric test, Mia-PaCa2; assay type: cell-based; conditions: 96 hours treatment, up to 10 μM; read-out: CI50 on the cell proliferation of the lines Mia-Paca2
Experimental: as §1, §2

Measured: IC50

Mixture of 2-[4-(diethylamino)phenyl]-5-[(2-pyrrolidin-1-ylethyl)amino]-1,3-benzoxazole-4,7-dione and 2-[4-(diethylamino)phenyl]-6-[(2-pyrrolidin-1-ylethyl)amino]-1,3-benzoxazole-4,7-dione [Example 62]
≤ 10 µM: all assays above

Mixture of 2-[4-(diethylamino)phenyl]-5-{[2-(dimethylamino)ethyl]amino}-1,3-benzoxazole-4,7-dione and 2-[4-(dimethylamino)phenyl]-6-{[2-(dimethylamino)ethyl]amino}-1,3-benzoxazole-4,7-dione [Example 61]
≤ 10 µM: all assays above

Mixture of 2-cyclohexyl-5-[(2-pyrrolidin-1-ylethyl)amino]-1,3-benzothiazole-4,7-dione and 2-cyclohexyl-6-[(2-pyrrolidin-1-ylethyl)amino]-1,3-benzothiazole-4,7-dione [Example 101]
≤ 10 µM: all assays above

Mixture of 2-ethyl-5-(4-methylpiperazin-1-yl)-1,3-benzoxazole-4,7-dione and 2-ethyl-6-(4-methylpiperazin-1-yl)-1,3-benzoxazole-4,7-dione [Example 49]
≤ 10 µM: all assays above

Mixture of 2-ethyl-5-[(1-ethylhexyl)amino]-1,3-benzoxazole-4,7-dione and 2-ethyl-6-[(1-ethylhexyl)amino]-1,3-benzoxazole-4,7-dione [Example 50]
≤ 10 µM: all assays above

Mixture of 2-ethyl-5-morpholin-4-yl-1,3-benzoxazole-4,7-dione and 2-ethyl-6-morpholin-4-yl-1,3-benzoxazole-4,7-dione [Example 52]
≤ 10 µM: all assays above

Mixture of 5-[(1-benzylpyrrolidin-3-yl)amino]-2-(4-fluorophenyl)-1,3-benzoxazole-4,7-dione and 6-[(1-benzylpyrrolidin-3-yl)amino]-2-(4-fluorophenyl)-1,3-benzoxazole-4,7-dione [Example 78]
≤ 10 µM: all assays above

Mixture of 5-[(2-pyrrolidin-1-ylethyl)amino]-2-(2,3,4,5-tetrafluorophenyl)-1,3-benzoxazole-4,7-dione and 6-[(2-pyrrolidin-1-ylethyl)amino]-2-(2,3,4,5-tetrafluorophenyl)-1,3-benzoxazole-4,7-dione [Example 89]
≤ 10 µM: all assays above

Mixture of 5-[(2-pyrrolidin-1-ylethyl)amino]-2-(3,4,5-trifluorophenyl)-1,3-benzoxazole-4,7-dione and 6-[(2-pyrrolidin-1-ylethyl)amino]-2-(3,4,5-trifluorophenyl)-1,3-benzoxazole-4,7-dione [Example 87]
≤ 10 µM: all assays above

Mixture of 5-[(2-pyrrolidin-1-ylethyl)amino]-2-thien-2-yl-1,3-benzothiazole-4,7-dione and 6-[(2-pyrrolidin-1-ylethyl)amino]-2-thien-2-yl-1,3-benzothiazole-4,7-dione [Example 103]
≤ 10 µM: all assays above

Mixture of 5-azocan-1-yl-2-ethyl-1,3-benzoxazole-4,7-dione and 6-azocan-1-yl-2-ethyl-1,3-benzoxazole-4,7-dione [Example 51]
≤ 10 µM: all assays above

Mixture of 5-{[2-(dimethylamino)ethyl]amino}-2-(2,3,4,5-tetrafluorophenyl)-1,3-benzoxazole-4,7-dione and 6-{[2-(dimethylamino)ethyl)]amino}-2-(2,3,4,5-tetrafluorophenyl)-1,3-benzoxazole-4,7-dione [Example 90]
≤ 10 µM: all assays above

Mixture of 5-{[2-(dimethylamino)ethyl]amino}-2-(2-fluorophenyl)-1,3-benzothiazole-4,7-dione and 6-{[2-(dimethylamino)ethyl]amino}-2-(2-fluorophenyl)-1,3-benzothiazole-4,7-dione [Example 108]
≤ 10 µM: all assays above

Mixture of 5-{[2-(dimethylamino)ethyl]amino}-2-(2-methoxyphenyl)-1,3-benzothiazole-4,7-dione and 6-{[2-(dimethylamino)ethyl]amino}-2-(2-methoxyphenyl)1,3-benzothiazole-4,7-dione [Example 107]
≤ 10 µM: all assays above

Mixture of 5-{[2-(dimethylamino)ethyl]amino}-2-(3,4,5-trifluorophenyl)-1,3-benzoxazole-4,7-dione and 6-{[2-(dimethylamino)ethyl]amino}-2-(3,4,5-trifluorophenyl)-1,3-benzoxazole 4,7-dione [Example 88]
≤ 10 µM: all assays above

Mixture of 5-{[2-(dimethylamino)ethyl]amino}-2-(4-fluorophenyl)-1,3-benzothiazole-4,7-dione and 6-{[2-(dimethylamino)ethyl]amino}-2-(4-fluorophenyl)-1,3-benzothiazole-4,7-dione [Example 111]
≤ 10 µM: all assays above

Mixture of 5-{[2-(dimethylamino)ethyl]amino}-2-(4-fluorophenyl)-1,3-benzoxazole-4,7-dione and 6-{[2-(dimethylamino)ethyl]amino}-2-(4-fluorophenyl)-1,3-benzoxazole-4,7-dione [Example 77]
≤ 10 µM: all assays above

Mixture of 5-{[2-(dimethylamino)ethyl]amino}-2-[2-fluoro-6-(trifluoromethyl)phenyl]-1,3-benzoxazole-4,7-dione and 6-{[2-(dimethylamino)ethyl]amino}-2-[2-fluoro-6-(trifluoromethyl)phenyl]-1,3-benzoxazole-4,7-dione [Example 91]
≤ 10 µM: all assays above

Mixture of 5-{[2-(dimethylamino)ethyl]amino}-2-phenyl-1,3-benzoxazole-4,7-dione and 6-{[2-(dimethylamino)ethyl]amino}-2-phenyl-1,3-benzoxazole-4,7-dione [Example 57]
≤ 10 µM: all assays above

Mixture of 5-{[3-(dimethylamino)propyl]amino}-2-(4-fluorophenyl-1,3-benzoxazole-4,7-dione and 6-{[3-(dimethylamino)propyl]amino}-2-(4-fluorophenyl)-1,3-benzoxazole-4,7-dione [Example 79]
≤ 10 µM: all assays above

Mixture of 5-{[3-(dimethylamino)propyl]amino}-2-[2-fluoro-6-(trifluoromethyl)phenyl]-1,3-benzoxazole-4,7-dione and 6-{[3-(dimethylamino)propyl]amino}-2-[2-fluoro-6-(trifluoromethyl)phenyl]-1,3-benzoxazole-4,7-dione [Example 93]
≤ 10 µM: all assays above
